Experimental data as given in paper PMC8531357, “Regulation of plant phototropic growth by NPH3/RPT2-like substrate phosphorylation and 14-3-3 binding” (Nature Communications, 2021).
These are yes or no findings as the source states them, for the method shown. Sequences can lack the tags named with a protein.

Key:
[1] = target: T1, GFP-NPH3 S744A (Arabidopsis) (UniProt Q9FMF5); assay: far-Western, overlay or dot blot; GFP-Trap immunoprecipitates from etiolated seedlings maintained in darkness (D), separated by SDS-PAGE, on PVDF; probed with purified GST-14-3-3 or GST alone at 1 µM in 20 mM HEPES-KOH pH 7.7, 75 mM KCl, 0.1 mM EDTA, 1 mM DTT, 2% milk, 0.04% Tween-20; detected with anti-GST; both purified
T1 sequence: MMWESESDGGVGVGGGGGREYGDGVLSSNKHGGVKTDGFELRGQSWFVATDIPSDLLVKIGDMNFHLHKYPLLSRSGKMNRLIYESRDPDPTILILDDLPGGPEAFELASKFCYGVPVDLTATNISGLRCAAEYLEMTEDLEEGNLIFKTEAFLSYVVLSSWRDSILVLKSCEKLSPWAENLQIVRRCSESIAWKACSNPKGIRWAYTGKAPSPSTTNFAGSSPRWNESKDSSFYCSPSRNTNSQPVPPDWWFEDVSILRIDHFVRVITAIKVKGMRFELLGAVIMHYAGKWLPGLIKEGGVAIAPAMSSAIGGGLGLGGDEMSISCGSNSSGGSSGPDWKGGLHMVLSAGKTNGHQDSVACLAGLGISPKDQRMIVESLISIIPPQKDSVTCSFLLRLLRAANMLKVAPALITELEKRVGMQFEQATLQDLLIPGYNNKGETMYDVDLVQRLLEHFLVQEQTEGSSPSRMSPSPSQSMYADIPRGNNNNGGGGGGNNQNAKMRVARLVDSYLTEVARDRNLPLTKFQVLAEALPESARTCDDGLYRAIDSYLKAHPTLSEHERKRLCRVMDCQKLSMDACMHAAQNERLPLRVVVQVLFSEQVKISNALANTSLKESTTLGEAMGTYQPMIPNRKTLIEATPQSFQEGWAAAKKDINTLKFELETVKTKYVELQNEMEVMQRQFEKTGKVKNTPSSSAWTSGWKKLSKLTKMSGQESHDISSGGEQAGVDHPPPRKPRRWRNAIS

[2] = target: T1, GFP-NPH3 S744A (Arabidopsis); assay: far-Western, overlay or dot blot; GFP-Trap immunoprecipitates from etiolated seedlings irradiated with 20 µmol m^-2 s^-1 blue light for 15 min (L), separated by SDS-PAGE, on PVDF; probed with purified GST-14-3-3 or GST alone at 1 µM in 20 mM HEPES-KOH pH 7.7, 75 mM KCl, 0.1 mM EDTA, 1 mM DTT, 2% milk, 0.04% Tween-20; detected with anti-GST; both purified

binding [1]: no binding (tested: 1 µM)
binding [2]: no binding (tested: 1 µM)
B1: GST-14-3-3 Epsilon (natural protein, Arabidopsis, UniProt P48347 1-254, looked up)
chain: MENEREKQVYLAKLSEQTERYDEMVEAMKKVAQLDVELTVEERNLVSVGYKNVIGARRASWRILSSIEQKEESKGNDENVKRLKNYRKRVEDELAKVCNDILSVIDKHLIPSSNAVESTVFFYKMKGDYYRYLAEFSSGAERKEAADQSLEAYKAAVAAAENGLAPTHPVRLGLALNFSVFYYEILNSPESACQLAKQAFDDAIAELDSLNEESYKDSTLIMQLLRDNLTLWTSDLNEEGDERTKGADEPQDEN
notes: Arabidopsis 14-3-3 isoform Epsilon (epsilon group member), expressed from pGEX-4T1 as a translational fusion with GST; source: E. coli BL21(DE3), purified (glutathione agarose)
